In PubChem BioAssay AID1671190 (National Center for Advancing Translational Sciences (NCATS), 2021):
Out of some 580,000 compounds screened, about 6,100 (1.1%) were called active. The shares of active, inactive and inconclusive entries below differ from those in the screen. The call rests on the fitted dose curve; in most records, active means well fitted inhibition curve with a large enough effect; inconclusive means small, poorly fitted or top-dose-only effect, or another doubt; inactive means no such curve, though single readings can be large or run the other way. Potencies beside an inconclusive call are fits to weak or partial responses and may not hold up.

By UniProt entry, the sequences of proteins in these tests, tags left out.
UniProt P18054, whole entry, looked up: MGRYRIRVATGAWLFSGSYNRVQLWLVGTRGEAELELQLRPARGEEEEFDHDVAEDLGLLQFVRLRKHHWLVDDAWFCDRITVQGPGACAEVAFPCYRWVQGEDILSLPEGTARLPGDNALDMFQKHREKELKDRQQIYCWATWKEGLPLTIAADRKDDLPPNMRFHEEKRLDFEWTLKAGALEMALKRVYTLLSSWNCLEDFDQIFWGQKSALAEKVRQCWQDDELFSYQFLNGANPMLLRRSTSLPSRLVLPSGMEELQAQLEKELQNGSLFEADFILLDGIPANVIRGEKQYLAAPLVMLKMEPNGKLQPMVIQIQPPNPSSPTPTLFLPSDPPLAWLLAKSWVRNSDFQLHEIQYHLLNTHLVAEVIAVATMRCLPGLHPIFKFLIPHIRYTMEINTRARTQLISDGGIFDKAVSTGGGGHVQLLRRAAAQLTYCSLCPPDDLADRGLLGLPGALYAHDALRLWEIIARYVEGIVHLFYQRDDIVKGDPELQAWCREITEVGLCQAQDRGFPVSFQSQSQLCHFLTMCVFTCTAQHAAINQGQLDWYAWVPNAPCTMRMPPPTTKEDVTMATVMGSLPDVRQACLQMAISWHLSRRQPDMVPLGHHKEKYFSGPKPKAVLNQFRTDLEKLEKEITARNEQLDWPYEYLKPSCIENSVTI

target: Polyunsaturated fatty acid lipoxygenase ALOX12 (Homo sapiens) (UniProt P18054); assay: Primary qHTS assay for inhibitors of human arachidonate 12S-lipoxygenase (ALOX12): Round 2; conditions: purified 12hLO, xylenol orange hydroperoxide absorbance; activity change, negative = inhibition: at 108 µM (top of the series) unless noted
Procedure, shortened: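 Purified human 12hLO (150 nM final) in 25 mM Hepes, 0.01% Triton X-100, pH 7.0 was preincubated 15 min at room temperature with compound. Then 40 uM arachidonic acid was added, 30 min. Hydroperoxide was read by Fe-XO absorbance ratio 573/405 nm.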
On the % scale 0 is the no-effect control and ±100 the full control effect; potency means the concentration at half of the fitted maximal effect.

Row | SMILES | Potency | activity change, negative = inhibition
1 | O=C(C1CCCC1)N1CCCC(Nc2ccc(F)cc2)C1 (stereo not given) | inactive | –
2 | O=C(NCc1ccco1)c1cnccn1 | inconclusive: 141 µM [inhibitor, partial curve, poor fit] | –
3 | O=C(NC(=S)N1CCN(C/C=C/c2ccccc2)CC1)c1ccco1 | inactive | –
4 | Cc1ccc(NC(=O)CSc2n[nH]c(-c3cccnc3)n2)cc1Cl | inconclusive: 112 µM [inhibitor, single point] | –
5 | O=C1c2cc(N3CCOCC3)nc(-c3cccc(F)c3)c2CN1Cc1ccccc1 | inconclusive: 35.5 µM [inhibitor, full curve, poor fit] | –
6 | COc1ccc(C(NC(=O)C2CCN(CCOc3ccc(Cl)cc3)CC2)c2cccs2)cc1 (stereo not given) | inconclusive: 44.7 µM [inhibitor, partial curve, poor fit] | –
7 | C=CCn1c(NCCOC)nc2c1c(=O)n(C)c(=O)n2C | inactive | –
8 | CCC(=O)Nc1ccc(C(=O)Nc2cccc(C)c2)cc1 | inconclusive: 44.7 µM [inhibitor, partial curve, poor fit] | –
9 | COc1cc(Br)cc(CNc2ccc(F)c([N+](=O)[O-])c2)c1O | inconclusive: 44.7 µM [inhibitor, partial curve, poor fit] | –
10 | N#CC1=C(N)OC2=C(C(=O)CC(c3cccs3)C2)C1c1ccccc1 (stereo not given) | inconclusive: 50.1 µM [inhibitor, partial curve, poor fit] | –
11 | COCc1cc(N2CCc3onc(-c4cccc5ccccc45)c3C2)ncn1 | inactive | –
12 | Cc1ccc(-n2nc(C)c(Sc3ccccc3[N+](=O)[O-])c2N)cc1 | inactive | –
13 | CC(=O)C1=C(O)C=C2Oc3c(C(C)=O)c(O)c(C)c(O)c3C2(C)C1=O (stereo not given) | inconclusive: 0.544 µM [inhibitor, partial curve, poor fit] | –
14 | Cc1noc(N)c1C(=O)OC(C)C(=O)NC1CC1 (stereo not given) | inactive | –
15 | COc1ccc(-c2[nH]nc3c2C(c2ccsc2)C(C#N)=C(N)O3)cc1 (stereo not given) | inconclusive: 39.8 µM [inhibitor, partial curve, poor fit] | –
16 | O=C(CCC1CCCN(C(=O)c2ccc3c(c2)OCO3)C1)NCc1ccccc1Cl (stereo not given) | inactive | –
17 | O=C(NC(=S)Nc1ccccc1Br)C1CCC1 | inconclusive: 50.1 µM [inhibitor, partial curve, poor fit] | –
18 | O=C(CCc1c[nH]c2ccccc12)NC1CC1 | inconclusive: 0.398 µM [inhibitor, full curve, poor fit] | –
19 | Cc1oc(-c2ccccc2)nc1C(=O)NC(C1CC1)C1CC1 | inactive | –
20 | Cc1cccn2c(=O)c3cc(C(=O)NC4CCCCC4)c(=N)n(Cc4ccccc4)c3nc12 | inactive | –
21 | COc1cc(OC)c(OC)cc1CNC(=O)c1cc(S(=O)(=O)N(C)c2ccccc2OC)ccc1C | inconclusive: 112 µM [inhibitor, single point] | –
22 | CCO[C@@H]1OC(C(=O)NC2CC2)=C[C@H](c2ccc(Br)cc2)[C@H]1CCCO | inconclusive: 44.7 µM [inhibitor, partial curve, poor fit] | –
23 | COc1ccc(NC(=O)C(C)Nc2ccc3oc(C)nc3c2)cc1 (stereo not given) | inconclusive: 126 µM [inhibitor, partial curve, poor fit] | –

Three entries from above, as labelled records:
CC(=O)C1=C(O)C=C2Oc3c(C(C)=O)c(O)c(C)c(O)c3C2(C)C1=O (stereo not given)
  Potency: inconclusive: 0.544 µM [inhibitor, partial curve, poor fit]
O=C(CCC1CCCN(C(=O)c2ccc3c(c2)OCO3)C1)NCc1ccccc1Cl (stereo not given)
  Potency: inactive
COc1cc(OC)c(OC)cc1CNC(=O)c1cc(S(=O)(=O)N(C)c2ccccc2OC)ccc1C
  Potency: inconclusive: 112 µM [inhibitor, single point]

Remaining list, next part.

Row | SMILES | Potency | activity change, negative = inhibition
24 | CN(CC(=O)Nc1ccc2c(c1)OC1(CCCC1)O2)S(=O)(=O)c1cccs1 | inconclusive: 89.1 µM [inhibitor, partial curve, poor fit] | –
25 | CCCCCCCCS(=O)CCC(=O)O (stereo not given) | active: 25.1 µM | –
26 | COc1cc(Cl)c(C)cc1NC(=O)c1cnc(N2CCOCC2)c2ccccc12 | – | inconclusive: -31.7% [inhibitor]
27 | O=C(c1ccc2nc3ccccc3c(=O)n2c1)N1CCN(Cc2ccc3c(c2)OCO3)CC1 | inactive | –
28 | O=C1[C@@H]2[C@@H](CCN2C(=O)NC2CCCCC2)N(Cc2cccs2)C(=O)N1c1cccc(F)c1 | inactive | –
29 | Cc1ccccc1CSc1nc2c(=O)n(C)c(=O)n(C)c2n1C | inactive | –
30 | c1ccc(CCC2Cc3ccccc3N2)cc1 (stereo not given) | inactive | –
31 | CCOc1ccc(S(=O)(=O)N2CCC(C(=O)Nc3ccccc3N3CCCC3)CC2)cc1 | inactive | –
32 | CCCCCCCCN1C(=O)[C@@H](CC(=O)N2CCN(C(=O)c3ccco3)CC2)C[C@@]2(C(=O)OC)C1=C[C@H](C1CCCC1)O[C@@H]2C | inconclusive: 44.7 µM [inhibitor, partial curve, poor fit] | –
33 | O=C(COC(=O)CSc1ccc(Cl)cc1)NCCc1ccccc1 | inconclusive: 44.7 µM [inhibitor, partial curve, poor fit] | –
34 | Cn1c(COc2cc(Cl)ccc2Cl)n[nH]c1=S | active: 50.1 µM | –
35 | CC(=O)c1ccc(NC(=O)c2ccccc2Sc2ncnc3sc(C)c(C)c23)cc1 | inconclusive: 31.6 µM [inhibitor, partial curve, poor fit] | –
36 | COc1ccc(/C=C/C(=O)NC2CCCC2)c(OC)c1 | inactive | –
37 | O=C(/C=C/Nc1ccc(Br)cc1F)c1ccc(OC(F)F)cc1 | inconclusive: 31.6 µM [inhibitor, partial curve] | –
38 | COc1ccc(CC(=O)N2CCc3cc(OC)c(OC)cc3C2COc2ccc(F)cc2)cc1OC (stereo not given) | inactive | –
39 | Cc1ccc(C2C(C#N)=C(SCC(=O)Nc3cccc(C)c3C)NC3=C2C(=O)CCC3)o1 (stereo not given) | inconclusive: 44.7 µM [inhibitor, partial curve, poor fit] | –
40 | CCOC(=O)C(Cc1ccnnc1)=NO | – | inconclusive: -34.4% [inhibitor]
41 | CCN(CC)C(CNC(=O)Nc1cccc(C(=O)N2CCCCC2)c1)c1ccsc1 (stereo not given) | inconclusive: 0.178 µM [inhibitor, full curve, poor fit] | –
42 | CN1CCN(C(=O)c2cc3ccccc3[nH]2)CC1 | inconclusive: 25.1 µM [inhibitor, single point] | –
43 | Cc1cccc(/C=N/NC(=O)c2c(-c3ccccc3)noc2C)c1O | inconclusive: 12.6 µM [inhibitor, partial curve, poor fit] | –
44 | Cc1ccc(C(=O)C(C)CN2CCCCC2)cc1 (stereo not given) | inconclusive: 89.1 µM [inhibitor, single point] | –
45 | CCCCN(CCCC)C(=S)NC(=O)C(C)(C)C | inactive | –
